The values that follow are results of earlier work, collected in patent US8617611B2, “Polymeric compositions comprising therapeutic agents in crystalline phases, and methods of forming the same” (Cordis Corporation, priority 2005, dated 2013).

Structures are written as SMILES.

On to `CO[C@H]1C[C@@H]2CC[C@@H](C)[C@@](O)(O2)C(=O)C(=O)N2CCCC[C@H]2C(=O)O[C@H]([C@H](C)C[C@@H]2CC[C@@H](O)[C@H](OC)C2)CC(=O)[C@H](C)/C=C(\C)[C@@H](O)[C@@H](OC)C(=O)[C@H](C)C[C@H](C)/C=C/C=C/C=C/1C` [Sirolimus], for which the “solubility in organic solvents” value (dioxane, chloroform, acetone, acetonitrile, benzyl alcohol) was “highly soluble”. Where the note is “water”, the solubility in water entry is reported as “insoluble”.
